Test results published in PMC11335228.
Results are given in words; binding and its absence hold for the method and conditions named. For some of these results: Binding seen in cells or lysates may run through a third protein. Some binding calls cover weakened binding; strength is not graded here.

By UniProt entry, the sequences of proteins in these tests, tags left out. Where a name states a change or a piece, a line headed by the entry shows the natural chain unless it says otherwise. Chains listed by the source or under a name are the forms on record and can include a tag or linker. Residues count along the entry.
DNAX-activating protein of 12 kDa (DAP12) wt, overexpressed in HEK293 cells (O43914, residues 22-113): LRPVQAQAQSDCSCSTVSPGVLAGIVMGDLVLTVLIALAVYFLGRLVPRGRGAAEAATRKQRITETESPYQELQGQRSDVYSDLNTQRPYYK
DAP12 D50A mutant, overexpressed in HEK293 cells (O43914, form named): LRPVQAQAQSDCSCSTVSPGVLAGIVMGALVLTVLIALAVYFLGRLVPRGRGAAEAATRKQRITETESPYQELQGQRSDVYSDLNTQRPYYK

Legend:
[1] = target: T1, Retention in ER sorting receptor 1 (RER1) in HEK293 cells (human (endogenous in HEK293)) (UniProt O15258); assay: co-IP; HEK293 cells transiently expressing DAP12 wt or DAP12 D50A with or without TREM2 (Fig. 5A); membrane lysates in 1% n-dodecyl-β-d-maltoside, 5 µg antibody 4 h at RT, Sepharose Protein G beads; western immunoblot
T1 sequence: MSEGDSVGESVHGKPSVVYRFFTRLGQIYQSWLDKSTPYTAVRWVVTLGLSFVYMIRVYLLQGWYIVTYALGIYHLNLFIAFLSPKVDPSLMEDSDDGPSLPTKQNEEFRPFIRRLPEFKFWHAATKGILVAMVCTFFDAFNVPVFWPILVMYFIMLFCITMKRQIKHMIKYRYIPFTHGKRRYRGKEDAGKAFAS

[2] = target: T2, RER1, endogenous in macrophage-like differentiated THP-1 cells (human (endogenous in THP-1)) (UniProt O15258); assay: co-IP; macrophage-like differentiated THP-1 wt and TREM2 ko cells, endogenous proteins (Fig. 5B and C; anti-RER1 antibody used in the IP in C); membrane lysates in 1% n-dodecyl-β-d-maltoside, Sepharose Protein G beads; western immunoblot
T2 sequence: T1 sequence

[3] = target: DAP12, endogenous in macrophage-like differentiated THP-1 cells (human (endogenous in THP-1)) (UniProt O43914); assay: condition: only under reducing conditions (DTT, 100 mM); reducing SDS-PAGE and western immunoblotting; membranes of differentiated THP-1 cells; SDS sample buffer with DTT (100 mM), 5 min 95 °C

**Q.** “DAP12 D50A mutant, overexpressed in HEK293 cells (from UniProt O43914 22-113)” was tested. Which binding [1] did it give?
**A.** no binding

**Q.** Which results are given for “DAP12, endogenous in macrophage-like differentiated THP-1 cells (from UniProt O43914 22-113)”?
**A.** binding [2]: binds; binding [3]: no binding

**Q.** For “DNAX-activating protein of 12 kDa (DAP12) wt, overexpressed in HEK293 cells (from UniProt O43914 22-113)”, which binding [1] is on record?
**A.** binds
